Article PMC8836581
Results are given in words; binding and its absence hold for the method and conditions named.

The chains behind the UniProt entries cited, without tags or fusion partners. Residues count along the entry.
UniProt P02768, residues 25-609: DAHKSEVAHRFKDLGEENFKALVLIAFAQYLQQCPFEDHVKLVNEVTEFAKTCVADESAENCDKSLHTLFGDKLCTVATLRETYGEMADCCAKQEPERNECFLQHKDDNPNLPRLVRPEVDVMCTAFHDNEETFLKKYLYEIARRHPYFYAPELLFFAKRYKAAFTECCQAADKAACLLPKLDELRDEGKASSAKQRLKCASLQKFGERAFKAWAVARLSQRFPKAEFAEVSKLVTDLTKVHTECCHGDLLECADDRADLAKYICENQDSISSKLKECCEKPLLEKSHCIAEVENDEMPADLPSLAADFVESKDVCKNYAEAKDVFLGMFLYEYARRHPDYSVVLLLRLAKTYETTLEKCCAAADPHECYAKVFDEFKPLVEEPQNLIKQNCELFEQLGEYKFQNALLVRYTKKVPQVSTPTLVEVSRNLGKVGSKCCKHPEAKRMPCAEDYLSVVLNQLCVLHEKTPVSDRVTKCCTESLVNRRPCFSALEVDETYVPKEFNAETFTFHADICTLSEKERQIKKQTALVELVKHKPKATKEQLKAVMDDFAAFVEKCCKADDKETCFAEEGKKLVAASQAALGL

Molecular target: T1, TDP-43 peptide 17 (aa 310–329) (UniProt Q13148)
T1 sequence (peptide): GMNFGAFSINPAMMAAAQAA
Assay: ELISA; synthetic peptides (5 µg/mL in PBS, 10 mM EDTA) coupled through cysteine to maleimide-activated microplate wells, blocked with L-cysteine; 0.1 µg/mL recombinant protein added 1 h at 37 °C; biotinylated detection antibody, streptavidin-HRP, TMB, absorbance at 450 nm; both purified

Substance: recombinant albumin (from UniProt P02768 25-609)
- binding: no binding (tested: 0.1 µg/mL)
